Reference: patent US20120040389A1, “METHOD FOR DEMONSTRATION OF A MOLECULAR EVENT IN A CELL BY MEANS OF FLUORESCENT MARKER PROTEINS” (Institut National de la Sante et de la Recherche Medicale …, priority 2003, published 2012)

Tested on: Bax protein
Experiment: Bax activation: retention of GFP-Bax fluorescence after digitonin permeabilization, flow cytometry
Type: cell-based, human
Method: FIG. 11A-E represents the coupled measurement of Bax activation and the cell cycle. The clone 10 cells stably expressing the GFP-Bax fusion protein are treated with various drugs acting as pro-apoptotic agents and/or cytostatic agents. The measurement of Bax activation is carried out as described previously by evaluation of the retention of fluorescence after permeabilization with digitonin. In the permeabilization buffer, propidium iodide (0.4-0.8 mg/ml) was added and the cells were incubated for 30 minutes at 4° C. The distribution of the cells in the various phases of the cell cycle is read on the basis of their intensity of fluorescence in the red (PI). […] Moreover, it makes it possible to evaluate if Bax activation takes place in a preferential phase of the cell cycle.
The model implemented uses a clone designated “clone 10”. […]
The test is then based on the observation, under the fluorescence microscope or by flow cytometry, of the cells in which Bax is not activated and thus is distributed uniformly in the cytosol and of the cells in which Bax has been activated following an induction of apoptosis. […]
The cells are then resuspended in an intracellular saline solution in the presence of 50 μM of digitonin and then analyzed by flow cytometry and the fluorescence of the GFP is measured in channel FL1.

CN[C@H]1CCc2cc(OC)c(OC)c(OC)c2-c2ccc(OC)c(=O)cc21 [colcemid]
Bax activation in relation to the phase of the cell cycle: Bax activation in all phases of the cycle
